Source: PMC3393662
These are yes or no findings as the source states them, for the method shown. Binding seen in cells or lysates may run through a third protein. Some entries that bind do so weakly or less than the wild type.

Sequences of proteins named here, by UniProt entry; tags and fusion partners are left off.
UniProt Q9JM80: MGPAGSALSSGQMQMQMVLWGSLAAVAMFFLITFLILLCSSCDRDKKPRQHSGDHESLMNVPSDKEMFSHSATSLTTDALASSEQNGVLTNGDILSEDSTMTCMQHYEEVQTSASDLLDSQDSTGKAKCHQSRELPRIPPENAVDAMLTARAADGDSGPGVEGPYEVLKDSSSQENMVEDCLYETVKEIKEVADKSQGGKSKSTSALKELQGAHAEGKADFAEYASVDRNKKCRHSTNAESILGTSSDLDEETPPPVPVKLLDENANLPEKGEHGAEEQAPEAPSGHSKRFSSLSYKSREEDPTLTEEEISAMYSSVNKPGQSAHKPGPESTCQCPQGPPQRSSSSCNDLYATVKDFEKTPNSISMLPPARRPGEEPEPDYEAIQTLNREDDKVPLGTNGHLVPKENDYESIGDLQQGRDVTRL
UniProt P32577: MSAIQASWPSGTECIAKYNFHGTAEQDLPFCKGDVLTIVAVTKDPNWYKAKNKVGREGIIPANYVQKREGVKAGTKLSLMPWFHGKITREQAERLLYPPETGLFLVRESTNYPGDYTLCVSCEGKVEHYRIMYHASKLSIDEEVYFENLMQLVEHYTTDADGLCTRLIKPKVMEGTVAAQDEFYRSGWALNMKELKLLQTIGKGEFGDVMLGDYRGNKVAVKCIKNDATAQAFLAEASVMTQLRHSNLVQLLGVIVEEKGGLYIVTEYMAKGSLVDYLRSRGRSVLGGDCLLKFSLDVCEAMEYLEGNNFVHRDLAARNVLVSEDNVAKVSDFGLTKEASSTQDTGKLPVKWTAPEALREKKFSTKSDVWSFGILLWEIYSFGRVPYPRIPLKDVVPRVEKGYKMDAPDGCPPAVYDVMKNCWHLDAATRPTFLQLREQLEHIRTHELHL

Legend:
[1] = target: transmembrane glycoprotein PAG/Cbp (PAG) (rat (endogenous in RBL-2H3)) (UniProt Q9JM80); assay: co-IP; PAG immunoprecipitated with mouse anti-PAG IgG (1 or 4 ug) and protein G-Sepharose overnight at 4 C from precleared NP-40 lysates (0.1% NP-40, 150 mM NaCl, pH 7.5), blotted with anti-Csk. Cells were resting WT RBL cells, and sh-Ctrl, sh-Shp2-#1 and sh-Shp2-#2 RBL cells sensitized, starved and stimulated with 10 ng/ml DNP for the indicated times.
[2] = target: C-terminal Src kinase (Csk) (rat (endogenous in RBL-2H3)) (UniProt P32577); assay: co-IP; Csk immunoprecipitated with anti-Csk and protein G-Sepharose overnight at 4 C from precleared NP-40 lysates, blotted with anti-phosphotyrosine (4G10). Cells were sh-Ctrl, sh-Shp2-#1 and sh-Shp2-#2 RBL cells sensitized, starved and stimulated with 10 ng/ml DNP for the indicated times.

Substance | binding [1] | binding [2]
C-terminal Src kinase (Csk) (from UniProt P32577 1-450) | binds | 
transmembrane glycoprotein PAG/Cbp (PAG) (from UniProt Q9JM80 1-424) |  | binds
